Results reported in PubChem BioAssay AID1487 (National Center for Advancing Translational Sciences (NCATS), 2009).
The whole screen tested about 200,000 compounds, of which about 25 (0.01%) were called active. This list was built around the results that the source calls inconclusive (neither active nor inactive); the mix of calls is not that of the screen. The call rests on the fitted dose curve; in most records, active means well fitted inhibition curve with a large enough effect in the signal ratio, with a control signal flat (not every such curve was filed as active); inconclusive means small, poorly fitted or top-dose-only effect, or effect the other way, or a change in a side signal; inactive means flat fitted curve, though single readings scatter; the % refers to the signal ratio. A potency beside an inconclusive call is a rough fit, not a confirmed value.

Test: qHTS Assay for Modulators of Lamin A Splicing
Details: HeLa LMNA splicing GFP/RFP minigene ratio, 48 h; ratio change, negative = inhibition: at 46.1 µM (top of the series) unless noted
In short: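 S3 HeLa cells stably expressing lamin A-EGFP splicing minigene plus DsRed2, 600 cells/well, 48 h compound exposure at 37C. Laser-scanning cytometry; analysed as GFP (500-530 nm)/RFP (575-640 nm) total intensity ratio; 0.5% DMSO vehicle.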
On the % scale 0 is the no-effect control and ±100 the full control effect; potency means the concentration at half of the fitted maximal effect.

Row | Structure (SMILES) | ratio change, negative = inhibition | Potency
1 | CC(OC(=O)c1c2c(nc3ccccc13)/C(=C\c1ccc3c(c1)OCO3)CCC2)C(=O)Nc1ccc(S(N)(=O)=O)cc1 (stereo not drawn) | inconclusive: -39.3% | –
2 | Cc1ccc(NC(=O)c2ccccc2NS(=O)(=O)c2ccc(Cl)s2)cc1S(=O)(=O)N1CCOCC1 | – | inconclusive: 3.16 µM [fluorescent, full curve]
3 | C=CCn1c(SCC(=O)c2ccc(O)c(O)c2)nnc1-c1ccccc1OC | inactive: -11.8% | –
4 | O=C(NCc1cccn1Cc1ccccc1)Nc1ccc(Br)cc1F | inconclusive: 16.7% [at 46 µM] | –
5 | CCOC(=O)N1CCN(C(=O)c2cc3c(-c4ccc(Cl)cc4)nn(C)c3s2)CC1 | inconclusive: 8.97% | –
6 | COc1ccc(OC2C(=O)N(Cc3ccc4c(c3)OCO4)C2c2sccc2C)cc1 (stereo not drawn) | inconclusive: -16.6% | –
7 | COC(=O)c1ccc(NC(=S)Nc2cccc(C)n2)cc1 | inconclusive: 6.06% [at 46 µM] | –
8 | COc1ccc(/C=N/NC(=O)c2ccc(N)cc2)cc1Cn1cc([N+](=O)[O-])cn1 | inactive: 3.24% [at 46 µM] | –
9 | COc1cc2nc(N3CCN(C(=O)OCc4ccccc4)C(C(=O)NC(C)(C)C)C3)nc(N)c2cc1OC (stereo not drawn) | – | inconclusive: 10 µM [inhibitor, partial curve]
10 | Cc1ccc(S(=O)(=O)/C=C/c2ccccc2)cc1 | inactive: -10.6% | –
11 | COc1cc(/C=C/C2=CC(C)(C)NC(=S)N2)cc(OC)c1OC | inconclusive: -21.2% [at 46 µM] | –
12 | CCn1c(SCC(=O)Nc2cccc(F)c2)nnc1-c1cc2cc(Br)ccc2o1 | inconclusive: 48.6% | –
13 | CCOc1ccc(C2c3c(oc4cc(C)c(C)cc4c3=O)C(=O)N2CCCN2CCOCC2)cc1 (stereo not drawn) | inactive: -2.24% | –
14 | CCOP(=O)(OCC)C(Nc1ccc([N+](=O)[O-])cc1)c1ccc(Cl)cc1 (stereo not drawn) | inconclusive: -7.18% [at 46 µM] | –
15 | CCCN(CCC)S(=O)(=O)c1ccc2c(c1)N(CC(=O)NCc1ccc(F)cc1Cl)C(=O)CS2 | inconclusive: 1.11% [at 46 µM] | –
16 | COC(=O)c1ccc(CSc2ncnc3ccccc23)o1 | – | inconclusive: 22.4 µM [inhibitor, single point]
17 | CCCC(=O)Nc1ccc(N2CCN(C(=O)c3ccccc3C)CC2)cc1 | – | inconclusive: 12.6 µM [inhibitor, partial curve]
18 | CN(C)C(=O)c1ccc(-c2ccc3ncnc(NCc4ccccc4)c3c2)cc1 | – | inconclusive: 15.8 µM [inhibitor, single point]
19 | CC(=O)Nc1ccc(S(=O)(=O)Nc2ccc([N+](=O)[O-])cc2)cc1 | inactive: -29.2% | –
20 | Cc1ccc(C(=O)Nc2ccc(S(=O)(=O)O)c3cc(S(=O)(=O)O)cc(S(=O)(=O)O)c23)cc1NC(=O)c1cccc(NC(=O)Nc2cccc(C(=O)Nc3cc(C(=O)Nc4ccc(S(=O)(=O)O)c5cc(S(=O)(=O)O)cc(S(=O)(=O)O)c45)ccc3C)c2)c1 | – | inconclusive: 0.794 µM [activator, full curve]
21 | Cc1c(N=Cc2ccco2)c(=O)n(-c2ccccc2)n1C | inactive: 1.52% | –
22 | COc1ccc(CNC(=O)c2cnccn2)cc1 | inactive: 0.635% | –
23 | O=C(Cc1ccccc1)NC1CC(=O)N(c2ccccc2)C1 (stereo not drawn) | inactive: 11.8% [at 46 µM] | –
24 | Cc1ccc(CSCCNC(=O)/C=C/c2ccccc2Cl)cc1 | inconclusive: -26.4% | –
25 | CCCCNC(=S)NCc1ccc2c(c1)cc(C)n2C | – | inconclusive: 35.5 µM [falling, single point]
26 | O=C(CNC(=S)NC(=O)c1cccs1)c1ccccc1 | inactive: 0.286% | –

Row | Structure (SMILES) | ratio change, negative = inhibition | Potency
27 | Cn1cc(S(=O)(=O)c2cccc(Cl)c2)c(=O)c2cc(F)c(N3CCN(c4ccc(F)cc4)CC3)cc21 | inactive: 7.42% [at 46 µM] | –
28 | CC(C)(C)c1csc(NC(=O)Cn2cnc3ccccc3c2=O)n1 | inactive: 2.65% | –
29 | O=C(Nc1ccc(F)c(F)c1)c1cc(S(=O)(=O)NC2CCCCCC2)ccc1F | inconclusive: -40.5% [at 46 µM] | –
30 | C=CCN1c2ccccc2[C@]23C[C@@H](C(=O)OC)N(S(=O)(=O)c4ccc(C(F)(F)F)cc4)C2=NC(C(=O)OC)=C(C(=O)OC)[C@H]13 | inactive: -22.1% [at 9.22 µM] | –
31 | CCc1cc(=O)oc2cc(C)c(CN3CCCC3)c(O)c12 | inactive: 5.65% | –
32 | CCOC(=O)c1sc2ccccc2c1S(=O)(=O)Nc1ccc(CC)cc1 | inconclusive: 0.268% [at 46 µM] | –
33 | O=C(Nc1ccc(Cl)cn1)c1ccc([N+](=O)[O-])o1 | inconclusive: 357% [at 46 µM] | –
34 | CCOC(=O)CC1CCCCN1Cc1cn[nH]c1-c1ccc(F)cc1F (stereo not drawn) | inconclusive: 22.1% [at 46 µM] | –
35 | CCc1cc2cc(C)cc(C)c2nc1Cl | inconclusive: 8.22% [at 46 µM] | –
36 | CC1CCCCN1S(=O)(=O)c1ccc(C(=O)Nc2nnc(-c3ccncc3)o2)cc1 (stereo not drawn) | inconclusive: -30.2% [at 9.22 µM] | –
37 | COc1cc(/C=N/N2CCOCC2)ccc1OC(=O)c1ccco1 | inactive: -1.98% [at 46 µM] | –
38 | CC(C)c1nc(SCC(=O)N2CCN(c3ccccc3)CC2)c2c(=O)n(C)c(=O)n(C)c2n1 | inactive: -6.65% | –
39 | Cc1ccc(S(=O)(=O)Nc2cccc3ncccc23)s1 | – | inconclusive: 12.6 µM [fluorescent, partial curve]
40 | Cc1ccc(CNC(=O)N2CCC(CN3CCC(C)CC3)CC2)cc1 | inactive: 0.756% [at 46 µM] | –
41 | Cc1ccc(C(=O)NN2C(=O)CSC2=S)cc1 | inactive: -8.97% | –
42 | CCCC(=O)C1=C(c2ccccc2)C(C#N)(C#N)C(C#N)=C1N | inactive: 9.72% | –
43 | CN(C)CCNC(=O)COc1ccc(C23CC4CC(CC(C4)C2)C3)cc1 | – | inconclusive: 35.5 µM [falling, single point]
44 | NNC(=O)CCn1c2ccccc2c2ccccc21 | inactive: -7.94% [at 46 µM] | –
45 | NS(=O)(=O)c1cccc(NC(=O)CSc2nn(-c3ccccc3)c(=S)s2)c1 | – | inconclusive: 35.5 µM [fluorescent, single point]
46 | Cn1c(-c2ccccc2)c(C(=O)CC#N)c2ccccc21 | inconclusive: 12.2% [at 46 µM] | –
47 | CCc1cc2c(=O)c(-c3cnn(-c4ccccc4)c3)c(C)oc2cc1OCC(=O)Nc1ccc(F)c(F)c1 | inactive: 3.69% | –
48 | CCOC(=O)C(C)Sc1nc(-c2ccccn2)ncc1OC (stereo not drawn) | inconclusive: -13% [at 46 µM] | –
49 | Cc1ccc(Sc2nnc(Cc3ccccc3)c3ccccc23)cc1 | inconclusive: -15.7% | –
50 | CCOc1cccc2cc(-c3nc4sc5c(c4c(=O)[nH]3)CCC(C)C5)c(=O)oc12 (stereo not drawn) | inactive: 8.5% [at 46 µM] | –
51 | CCCCNC(=O)CSc1nc2ccccc2nc1Cc1ccc(Cl)cc1 | inconclusive: 4.88% [at 46 µM] | –
52 | Cc1ccnc2nc(C(=O)NCc3cccs3)nn12 | inactive: 15.4% | –

5 compounds picked at random from those above:
Row | Structure (SMILES) | ratio change, negative = inhibition | Potency
47 | CCc1cc2c(=O)c(-c3cnn(-c4ccccc4)c3)c(C)oc2cc1OCC(=O)Nc1ccc(F)c(F)c1 | inactive: 3.69% | –
44 | NNC(=O)CCn1c2ccccc2c2ccccc21 | inactive: -7.94% [at 46 µM] | –
39 | Cc1ccc(S(=O)(=O)Nc2cccc3ncccc23)s1 | – | inconclusive: 12.6 µM [fluorescent, partial curve]
48 | CCOC(=O)C(C)Sc1nc(-c2ccccn2)ncc1OC (stereo not drawn) | inconclusive: -13% [at 46 µM] | –
31 | CCc1cc(=O)oc2cc(C)c(CN3CCCC3)c(O)c12 | inactive: 5.65% | –

The list goes on.

Row | Structure (SMILES) | ratio change, negative = inhibition | Potency
53 | COc1ccccc1CNc1ccnc(-c2ccccc2Cl)n1 | inconclusive: -14.6% | –
54 | COCCNC(=O)c1cc(Sc2ccc(F)cc2F)nc2ccccc12 | inconclusive: -32.7% [at 46 µM] | –
55 | COCC(=O)Nc1ccc(OCc2ccccc2)cc1 | inconclusive: 24.7% | –
56 | COc1ccc2ccccc2c1C1CC(=O)N2CN(C)CSC2=C1C#N (stereo not drawn) | inactive: 2.58% | –
57 | O=C(CCN1CCc2ccccc2C(c2ccccc2)C1)c1ccc2c(c1)OCCO2 (stereo not drawn) | – | inconclusive: 11.2 µM [falling, partial curve]
58 | Cc1ccc2cc(CCNC(=O)c3cccs3)c(=O)[nH]c2c1C | inconclusive: 2.2% | –
59 | CC12C=CC(=O)C=C1CCC1C3CCC(O)(C(=O)CO)C3(C)CC3OC312 (stereo not drawn) | inconclusive: 4.36% [at 46 µM] | –
60 | Cc1noc(C)c1COc1cccc(C(=O)NC(C)(C)C)c1 | inactive: -10.8% [at 46 µM] | –
61 | CCCCCc1ccc(S(=O)(=O)NCCc2ccncc2)cc1 | – | inconclusive: 12.6 µM [falling, partial curve]
62 | CC(C)CNc1c(N)n(CC(C)C)c(=O)[nH]c1=O | – | inconclusive: 35.5 µM [inhibitor, partial curve, poor fit]
63 | CC#CCOC(=O)c1c(C)nc2sc3c(c2c1N)CCC(O)C3 (stereo not drawn) | inconclusive: -3.38% | –
64 | CCC(=O)O[C@@]1(C(=O)SCF)[C@@H](C)C[C@H]2[C@@H]3C[C@@H](F)C4=CC(=O)C=C[C@@]4(C)[C@]3(F)[C@@H](O)C[C@]21C | inconclusive: 17% | –
65 | Cn1c(=O)[nH]c(=O)c2c1nc(N1CCCCC1)n2CCCSc1nnnn1-c1ccccc1 | inactive: -6.18% | –
66 | CC(=O)Nc1sc(N/N=C\c2ccco2)nc1-c1cccs1 | inactive: -12.2% | –
67 | Cc1c(CCOC(=O)c2cc([N+](=O)[O-])cc([N+](=O)[O-])c2)sc[n+]1CC(=O)c1ccccc1 | inconclusive: 19.6% [at 46 µM] | –
68 | CCOc1ccc(CCNC(=O)C2CCN(S(=O)(=O)N3CCC(C)CC3)CC2)cc1OCC | inactive: -0.298% | –
69 | Cc1cccc(NC(=O)CSc2nc3c([nH]c4ccccc43)c(=O)n2C)c1 | – | inconclusive: 35.5 µM [cytotoxic, single point]
70 | CC1Cc2ccccc2N1C(=O)CN1C(=O)C(=O)N(Cc2ccccc2)C1=O (stereo not drawn) | inactive: 14.7% | –
71 | N#C/C(=C/c1ccc(N2CCOCC2)o1)C(=O)Nc1ccccc1 | – | inconclusive: 35.5 µM [activator, single point]
72 | CC(=O)Nc1ccc(C(=O)CSc2ncn(-c3ccccc3)n2)cc1 | inactive: 10.3% | –
73 | CC(N)(C(=O)O)c1ccc(C(=O)O)cc1 (stereo not drawn) | – | inconclusive: 0.001 µM [activator, full curve, poor fit]
74 | O=C(CN1CCOCC1)Nc1ncc(Cc2cccc(Cl)c2Cl)s1 | – | inconclusive: 35.5 µM [fluorescent, single point]
75 | Cc1cc(C(=O)NCc2cccnc2)no1 | inactive: 1.59% | –
76 | S=c1[nH]nc(CCc2nc3ccccc3[nH]2)n1-c1ccccc1 | inconclusive: 26.5% [at 46 µM] | –
77 | Clc1ccccc1-c1ccc(/C=N/n2cnnc2)o1 | inactive: -3.67% | –
78 | CC(C)(C)C1CCC(=NNC(=S)Nc2cccnc2)CC1 (stereo not drawn) | inconclusive: 15.9% [at 46 µM] | –
